Results are given in words; binding and its absence hold for the method and conditions named. Binding seen in cells or lysates may run through a third protein. These calls come from enrichment with a bait or labelling near it, and not all partners need be listed.
Molecular target: RNF126 (mouse (endogenous in testis)) (UniProt Q91YL2)
Experiment: affinity purification with mass spectrometry; RNF126 immunoprecipitated with antibody on protein A/G magnetic beads from mouse testis lysate (25 mM Tris, 150 mM NaCl, 1 mM EDTA, 1% NP40, pH 7.4), 4 °C overnight; Rnf126+/+ compared with Rnf126-/-; eluate to MS

Chains of the proteins cited; added tags and fusions are not shown.
UniProt Q91YL2: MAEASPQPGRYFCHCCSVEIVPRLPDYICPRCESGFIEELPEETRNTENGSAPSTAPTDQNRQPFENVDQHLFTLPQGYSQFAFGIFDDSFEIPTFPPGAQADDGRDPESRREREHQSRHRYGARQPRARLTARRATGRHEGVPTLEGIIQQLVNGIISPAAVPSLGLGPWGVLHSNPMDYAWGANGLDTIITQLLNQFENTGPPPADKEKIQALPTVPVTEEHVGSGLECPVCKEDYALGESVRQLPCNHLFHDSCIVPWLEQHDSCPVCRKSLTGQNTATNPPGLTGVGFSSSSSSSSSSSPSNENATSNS
UniProt Q9Z1R2: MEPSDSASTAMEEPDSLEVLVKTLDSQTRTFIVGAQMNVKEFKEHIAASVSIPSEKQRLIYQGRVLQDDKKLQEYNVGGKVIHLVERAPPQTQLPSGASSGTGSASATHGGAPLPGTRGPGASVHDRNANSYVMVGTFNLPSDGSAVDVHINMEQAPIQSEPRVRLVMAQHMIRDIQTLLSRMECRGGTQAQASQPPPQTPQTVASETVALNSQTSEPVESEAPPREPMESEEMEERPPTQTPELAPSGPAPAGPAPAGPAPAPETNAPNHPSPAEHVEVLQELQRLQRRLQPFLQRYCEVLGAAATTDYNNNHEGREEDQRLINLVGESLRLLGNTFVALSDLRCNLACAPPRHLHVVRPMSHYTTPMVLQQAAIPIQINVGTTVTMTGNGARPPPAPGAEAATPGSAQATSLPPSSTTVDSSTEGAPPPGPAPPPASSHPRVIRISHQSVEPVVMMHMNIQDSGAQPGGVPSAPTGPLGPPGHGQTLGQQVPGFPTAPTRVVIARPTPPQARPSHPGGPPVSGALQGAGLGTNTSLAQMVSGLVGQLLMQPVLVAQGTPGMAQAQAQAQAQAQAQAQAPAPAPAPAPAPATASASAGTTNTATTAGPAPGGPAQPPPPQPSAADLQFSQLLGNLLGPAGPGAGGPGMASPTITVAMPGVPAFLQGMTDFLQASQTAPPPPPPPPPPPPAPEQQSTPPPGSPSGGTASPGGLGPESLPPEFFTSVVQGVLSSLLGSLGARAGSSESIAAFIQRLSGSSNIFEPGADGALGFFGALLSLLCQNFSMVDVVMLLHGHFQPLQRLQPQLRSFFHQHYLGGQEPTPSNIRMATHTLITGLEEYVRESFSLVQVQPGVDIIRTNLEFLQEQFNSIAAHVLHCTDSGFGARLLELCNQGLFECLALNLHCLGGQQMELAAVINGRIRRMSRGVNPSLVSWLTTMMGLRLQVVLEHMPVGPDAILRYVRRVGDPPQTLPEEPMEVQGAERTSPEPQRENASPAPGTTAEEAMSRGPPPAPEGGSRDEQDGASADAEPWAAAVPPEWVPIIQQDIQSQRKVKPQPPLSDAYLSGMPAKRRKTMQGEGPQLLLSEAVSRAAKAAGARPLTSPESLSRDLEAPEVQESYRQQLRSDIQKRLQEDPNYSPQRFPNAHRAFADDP

binding: binds
Substance: BAG6 (from UniProt Q9Z1R2 1-1154)

— publication PMC12102401
